Results are given as percent effect.
The controls that fix the scale are not given in the record; negative values are as filed.
Compounds were drawn at random from those tested, without regard to their results.

Amino acid sequences for entries named in this document (tags omitted).
UniProt I6X8D2, whole entry: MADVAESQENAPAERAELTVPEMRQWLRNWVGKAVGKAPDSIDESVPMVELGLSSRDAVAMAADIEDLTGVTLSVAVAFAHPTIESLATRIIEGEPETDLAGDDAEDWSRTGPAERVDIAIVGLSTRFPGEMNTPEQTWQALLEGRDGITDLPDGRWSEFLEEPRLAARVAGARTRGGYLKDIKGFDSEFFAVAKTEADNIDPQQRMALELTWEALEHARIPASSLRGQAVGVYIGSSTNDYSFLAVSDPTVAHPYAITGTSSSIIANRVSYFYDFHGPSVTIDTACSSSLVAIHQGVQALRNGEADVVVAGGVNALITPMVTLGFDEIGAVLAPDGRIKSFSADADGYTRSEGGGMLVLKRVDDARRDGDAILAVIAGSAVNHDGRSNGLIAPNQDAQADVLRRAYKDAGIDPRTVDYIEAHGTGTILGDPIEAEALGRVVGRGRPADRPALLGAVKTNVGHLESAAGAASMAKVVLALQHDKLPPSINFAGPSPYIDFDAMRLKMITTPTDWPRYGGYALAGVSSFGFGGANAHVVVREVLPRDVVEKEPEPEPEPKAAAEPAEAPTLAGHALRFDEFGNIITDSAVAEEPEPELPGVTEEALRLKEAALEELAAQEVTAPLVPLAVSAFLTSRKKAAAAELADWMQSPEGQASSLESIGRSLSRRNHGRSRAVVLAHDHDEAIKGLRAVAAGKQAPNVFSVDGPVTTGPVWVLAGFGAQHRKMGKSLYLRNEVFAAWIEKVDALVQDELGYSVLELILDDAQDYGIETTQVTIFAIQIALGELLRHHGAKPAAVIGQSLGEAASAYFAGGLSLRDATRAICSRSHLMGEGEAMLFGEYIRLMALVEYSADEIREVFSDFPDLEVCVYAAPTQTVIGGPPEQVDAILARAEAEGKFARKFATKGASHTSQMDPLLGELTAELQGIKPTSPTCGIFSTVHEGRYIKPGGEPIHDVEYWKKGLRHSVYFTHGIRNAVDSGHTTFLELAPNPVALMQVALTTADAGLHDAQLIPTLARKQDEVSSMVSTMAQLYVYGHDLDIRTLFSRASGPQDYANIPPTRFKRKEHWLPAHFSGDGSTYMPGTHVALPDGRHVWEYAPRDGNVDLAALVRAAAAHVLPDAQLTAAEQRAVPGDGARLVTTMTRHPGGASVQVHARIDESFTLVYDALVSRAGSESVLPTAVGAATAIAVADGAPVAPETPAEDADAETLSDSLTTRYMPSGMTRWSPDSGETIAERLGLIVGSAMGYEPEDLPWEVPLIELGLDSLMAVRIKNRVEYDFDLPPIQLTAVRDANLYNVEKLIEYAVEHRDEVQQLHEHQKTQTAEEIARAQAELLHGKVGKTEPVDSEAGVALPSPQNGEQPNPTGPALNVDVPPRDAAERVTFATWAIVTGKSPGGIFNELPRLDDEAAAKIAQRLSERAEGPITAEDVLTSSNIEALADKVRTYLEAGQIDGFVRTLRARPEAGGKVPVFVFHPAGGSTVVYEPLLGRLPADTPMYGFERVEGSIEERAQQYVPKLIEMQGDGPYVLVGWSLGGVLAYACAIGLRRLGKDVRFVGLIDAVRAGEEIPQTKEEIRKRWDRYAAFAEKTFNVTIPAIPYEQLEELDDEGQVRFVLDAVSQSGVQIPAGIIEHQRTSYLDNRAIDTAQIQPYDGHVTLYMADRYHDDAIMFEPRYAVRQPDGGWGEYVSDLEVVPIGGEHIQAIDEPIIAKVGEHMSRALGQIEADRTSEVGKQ

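Polyketide synthase Pks13, Mycobacterium tuberculosis (UniProt I6X8D2). Enzyme assay of the thioesterase domain of polyketide synthase 13; the read-out is not stated. Tested at 30 µM. Higher reads as stronger inhibition (inferred from which compounds were picked for retests). Size under these conditions: about 67,000 compounds, about 300 of them at 50% or above in at least one test.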

O=C(Nc1ccc(-c2csnn2)cc1)N1CCCC1 gave -0.7687%.
CCOc1ccc(CNC2CCCN(c3cccnn3)C2)cc1OC (stereo not given) gave -1.96%.
Cc1nn2c(nc1=O)-c1ccccc1NC2C(=O)O (stereo not given) gave -28.16%.
Cc1cc(NC(C)Cn2cccn2)n2nccc2n1 (stereo not given) gave -7.812%.
Cn1cc(C2CCCN2Cc2cscn2)cn1 (stereo not given) gave -6.944%.
Cc1nc(C)c(C(=O)N2CCc3nnc(C4CCCCN4C)n3CC2)o1 (stereo not given) gave 1.97%.
CC(C)OCCC(=O)N(C)CCCc1cc(-c2ccccc2)no1 gave -8.994%.
Cc1cc(C)cc(N2CCN(Cc3cccc(CCN)c3)CC2=O)c1 gave -0.7963%.
CCc1nc(CNC(C)Cn2cccn2)cs1 (stereo not given) gave -15.44%.
CSc1ccccc1CCC1CCS(=O)(=O)C1 (stereo not given) gave 0.9015%.
Cc1noc(C)c1CN1CC[C@H]2OCC[C@@H](C(=O)NCC3CC3)[C@H]2C1 gave -26.8%.
C[C@@H]1CN(S(=O)(=O)N2CCCC2)C[C@@]1(O)C1CC1 gave -27.41%.
CN(C)C[C@H]1OC[C@@H]2CN(C(=O)NCc3cccc(F)c3)CC[C@@H]21 gave 6.825%.
O=S(=O)(CC1CCCCO1)Nc1cc(F)ccc1-n1cccn1 (stereo not given) gave -8.443%.
Cc1ncc(-c2ccnc(N3CC[C@H](O)C3)n2)c(-c2cccnc2)n1 gave 14.01%.
O=C(NCc1ccco1)[C@@]12CCO[C@@H]1CCN(Cc1nccs1)C2 gave -31.75%.
Cc1ccc(CN2CC3(CCN(C(=O)c4cccnc4)C3)C2)o1 gave -13.79%.
COCc1noc(Cc2c(C)nn(C)c2C)n1 gave -9.873%.
Fc1ccccc1OC1CCN(CCn2cc3ccccc3n2)CC1 gave -0.7707%.
CC(C)CC(CNC(=O)NCc1cc[nH]n1)N1CCOCC1 (stereo not given) gave -22.87%.
NC(=O)C1CCCN1C1CCN(C(=O)c2ccc3c(c2)OCO3)CC1 (stereo not given) gave 1.066%.
O=S1(=O)CCCN1Cc1coc(-c2cccs2)n1 gave -6.856%.
Cc1[nH]nc2ncc(C(=O)N3CCCC3c3noc(C(C)C)n3)cc12 (stereo not given) gave -7.684%.
c1cnc(N2CCCn3c(nnc3Cn3cccn3)C2)nc1 gave -31.1%.
Cc1cccc(C(=O)N2CCCCC2c2ccc(CN(C)C)cc2)n1 (stereo not given) gave -0.4769%.
Cc1noc(C[C@@H]2COC[C@H]3CN(S(C)(=O)=O)C[C@@H]23)n1 gave -35.43%.
CSc1ccc(CN2CCCC3(CNC(=O)c4ccccc4O3)C2)cc1 (stereo not given) gave -7.268%.
Cc1cccc(C(=O)N2CCCC(c3nccn3Cc3cscn3)C2)n1 (stereo not given) gave -0.2045%.
CCc1n[nH]c(SCC(=O)N2C[C@@H]3CC[C@H](C2)N(CC=C(C)C)C3)n1 gave 4.759%.
CC(C)c1nnc(NC(=O)NCc2ccnc(N(C)C)c2)s1 gave -4.486%.
CC(C)n1ccnc1C1CCN(C(=O)c2ccc(SCCO)cc2)CC1 gave 13.01%.
CC1Cc2ccccc2N1Cc1occc1C(=O)OCC(N)=O (stereo not given) gave 3.906%.
c1ccc(NCc2cnc3n2CCN(C2CCOC2)CC3)nc1 (stereo not given) gave -30.87%.
CNc1nc(CNC(=O)Nc2ccccc2C(F)(F)F)cs1 gave -11.37%.
COc1ccc(C(=O)C2CCCN(c3cnccn3)C2)c(C)c1 (stereo not given) gave -6.308%.
CCOC(=O)CNC(=O)N1CCOC(Cc2ccc(OC)cc2)C1 (stereo not given) gave -22.43%.

Once more, the final 4:

| structure | Percent Effect |
|---|---|
| `c1ccc(NCc2cnc3n2CCN(C2CCOC2)CC3)nc1` (stereo not given) | -30.87 |
| `CNc1nc(CNC(=O)Nc2ccccc2C(F)(F)F)cs1` | -11.37 |
| `COc1ccc(C(=O)C2CCCN(c3cnccn3)C2)c(C)c1` (stereo not given) | -6.308 |
| `CCOC(=O)CNC(=O)N1CCOC(Cc2ccc(OC)cc2)C1` (stereo not given) | -22.43 |

From ChEMBL document CHEMBL3988442, “University of Dundee, Small-Polar-MMV Screening Library” (2021).